# Publication doi:10.1101/2023.06.23.545108
# The chains behind the UniProt entries cited, without tags or fusion partners.
# UniProt Q15717, whole entry: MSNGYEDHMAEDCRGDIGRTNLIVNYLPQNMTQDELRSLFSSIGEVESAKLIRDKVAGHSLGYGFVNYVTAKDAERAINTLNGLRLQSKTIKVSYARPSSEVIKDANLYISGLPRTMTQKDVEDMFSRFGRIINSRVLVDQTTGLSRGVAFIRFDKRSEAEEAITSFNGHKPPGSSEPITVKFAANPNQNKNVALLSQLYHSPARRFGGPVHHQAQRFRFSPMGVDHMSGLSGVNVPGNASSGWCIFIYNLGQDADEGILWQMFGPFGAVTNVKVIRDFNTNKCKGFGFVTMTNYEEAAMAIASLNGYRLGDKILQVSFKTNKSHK
# Results are given in words; binding and its absence hold for the method and conditions named. In cells and extracts the contact can be indirect. Some entries that bind do so weakly or less than the wild type. For some assays here: Where a sequence is shown, tags or fusion partners need not be part of it.
# T1: hnRNPM-GFP (heterogeneous nuclear ribonucleoprotein M, C-terminally GFP-tagged), P52272
# T1 chain: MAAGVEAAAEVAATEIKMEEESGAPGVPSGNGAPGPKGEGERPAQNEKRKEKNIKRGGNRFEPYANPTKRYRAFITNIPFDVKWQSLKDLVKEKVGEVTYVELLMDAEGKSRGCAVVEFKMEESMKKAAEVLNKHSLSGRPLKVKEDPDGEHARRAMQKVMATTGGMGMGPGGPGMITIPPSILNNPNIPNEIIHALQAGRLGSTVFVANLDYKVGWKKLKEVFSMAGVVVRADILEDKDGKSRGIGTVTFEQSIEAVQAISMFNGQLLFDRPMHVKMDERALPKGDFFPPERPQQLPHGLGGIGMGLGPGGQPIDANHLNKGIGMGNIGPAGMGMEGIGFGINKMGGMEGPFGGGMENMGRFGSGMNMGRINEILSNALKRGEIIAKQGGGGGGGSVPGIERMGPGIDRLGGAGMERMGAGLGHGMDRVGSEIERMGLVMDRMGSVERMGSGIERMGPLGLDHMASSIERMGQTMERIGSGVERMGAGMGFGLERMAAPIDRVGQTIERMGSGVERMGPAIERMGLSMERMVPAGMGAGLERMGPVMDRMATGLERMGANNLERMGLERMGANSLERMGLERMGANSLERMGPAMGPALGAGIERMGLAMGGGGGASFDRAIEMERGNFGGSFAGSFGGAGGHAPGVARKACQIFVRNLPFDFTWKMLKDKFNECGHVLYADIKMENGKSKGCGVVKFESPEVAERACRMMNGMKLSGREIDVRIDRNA
# B1: TBK1 phosphorylated at Ser172 (pTBK1-Ser172), endogenous in THP-1, Q9UHD2 1-729 (protein)
# chain: MQSTSNHLWLLSDILGQGATANVFRGRHKKTGDLFAIKVFNNISFLRPVDVQMREFEVLKKLNHKNIVKLFAIEEETTTRHKVLIMEFCPCGSLYTVLEEPSNAYGLPESEFLIVLRDVVGGMNHLRENGIVHRDIKPGNIMRVIGEDGQSVYKLTDFGAARELEDDEQFVSLYGTEEYLHPDMYERAVLRKDHQKKYGATVDLWSIGVTFYHAATGSLPFRPFEGPRRNKEVMYKIITGKPSGAISGVQKAENGPIDWSGDMPVSCSLSRGLQVLLTPVLANILEADQEKCWGFDQFFAETSDILHRMVIHVFSLQQMTAHKIYIHSYNTATIFHELVYKQTKIISSNQELIYEGRRLVLEPGRLAQHFPKTTEENPIFVVSREPLNTIGLIYEKISLPKVHPRYDLDGDASMAKAITGVVCYACRIASTLLLYQELMRKGIRWLIELIKDDYNETVHKKTEVVITLDFCIRNIEKTVKVYEKLMKINLEAAELGEISDIHTKLLRLSSSQGTIETSLQDIDSRLSPGGSLADAWAHQEGTHPKDRNVEKLQVLLNCMTEIYYQFKKDKAERRLAYNEEQIHKFDKQKLYYHATKAMTHFTDECVKKYEAFLNKSEEWIRKMLHLRKQLLSLTNQCFDIEEEVSKYQEYTNELQETLPQKMFTASSGIKHTMTPIYPSSNTLVEMTLGMKKLKEEMEGVVKELAENNHILERFGSLTMDGGLRNVDCL
# modifications: here or on the partner: phosphoserine at 172
# B2: TBK1 phosphorylated at Ser172 (pTBK1-Ser172), endogenous in THP-1 (protein, UniProt Q9UHD2 1-729)
# chain: B1 chain
# modifications: phosphoserine at 172
# B3: IKKε, endogenous in HEK293FT, Q14164 1-716 (protein)
# chain: MQSTANYLWHTDDLLGQGATASVYKARNKKSGELVAVKVFNTTSYLRPREVQVREFEVLRKLNHQNIVKLFAVEETGGSRQKVLVMEYCSSGSLLSVLESPENAFGLPEDEFLVVLRCVVAGMNHLRENGIVHRDIKPGNIMRLVGEEGQSIYKLTDFGAARELDDDEKFVSVYGTEEYLHPDMYERAVLRKPQQKAFGVTVDLWSIGVTLYHAATGSLPFIPFGGPRRNKEIMYRITTEKPAGAIAGAQRRENGPLEWSYTLPITCQLSLGLQSQLVPILANILEVEQAKCWGFDQFFAETSDILQRVVVHVFSLSQAVLHHIYIHAHNTIAIFQEAVHKQTSVAPRHQEYLFEGHLCVLEPSVSAQHIAHTTASSPLTLFSTAIPKGLAFRDPALDVPKFVPKVDLQADYNTAKGVLGAGYQALRLARALLDGQELMFRGLHWVMEVLQATCRRTLEVARTSLLYLSSSLGTERFSSVAGTPEIQELKAAAELRSRLRTLAEVLSRCSQNITETQESLSSLNRELVKSRDQVHEDRSIQQIQCCLDKMNFIYKQFKKSRMRPGLGYNEEQIHKLDKVNFSHLAKRLLQVFQEECVQKYQASLVTHGKRMRVVHETRNHLRLVGCSVAACNTEAQGVQESLSKLLEELSHQLLQDRAKGAQASPPPIAPYPSPTRKDLLLHMQELCEGMKLLASDLLDNNRIIERLNRVPAPPDV
# B4: IKKβ (printed as IKKý), endogenous in HEK293FT, O14920 1-756 (protein)
# chain: MSWSPSLTTQTCGAWEMKERLGTGGFGNVIRWHNQETGEQIAIKQCRQELSPRNRERWCLEIQIMRRLTHPNVVAARDVPEGMQNLAPNDLPLLAMEYCQGGDLRKYLNQFENCCGLREGAILTLLSDIASALRYLHENRIIHRDLKPENIVLQQGEQRLIHKIIDLGYAKELDQGSLCTSFVGTLQYLAPELLEQQKYTVTVDYWSFGTLAFECITGFRPFLPNWQPVQWHSKVRQKSEVDIVVSEDLNGTVKFSSSLPYPNNLNSVLAERLEKWLQLMLMWHPRQRGTDPTYGPNGCFKALDDILNLKLVHILNMVTGTIHTYPVTEDESLQSLKARIQQDTGIPEEDQELLQEAGLALIPDKPATQCISDGKLNEGHTLDMDLVFLFDNSKITYETQISPRPQPESVSCILQEPKRNLAFFQLRKVWGQVWHSIQTLKEDCNRLQQGQRAAMMNLLRNNSCLSKMKNSMASMSQQLKAKLDFFKTSIQIDLEKYSEQTEFGITSDKLLLAWREMEQAVELCGRENEVKLLVERMMALQTDIVDLQRSPMGRKQGGTLDDLEEQARELYRRLREKPRDQRTEGDSQEMVRLLLQAIQSFEKKVRVIYTQLSKTVVCKQKALELLPKVEEVVSLMNEDEKTVVRLQEKRQKELWNLLKIACSKVRGPVSGSPDSMNASRLSQPGQLMSQPSTASNSLPEPAKKSEELVAEAHNLCTLLENAIQDTVREQDQSFTALDWSWLQTEEEEHSCLEQAS
# What was measured:
# [1] = molecular target: T1, hnRNPM-GFP (heterogeneous nuclear …); assay: co-IP; conditions: remark: other sources report otherwise
# [2] = molecular target: T1, hnRNPM-GFP (heterogeneous nuclear …); assay: proximity ligation; conditions: remark: other sources report otherwise
# ELAVL1-GFP = ELAVL1-GFP (UniProt Q15717); assay: proximity ligation
# ELAVL1-FLAG, Q15717 = assay: co-IP; conditions: remark: other sources report otherwise
binder,measurement,setting,value
B1,binding,[1],binds
same,binding,[2],binds
B2,binding,ELAVL1-GFP,binds
B3,binding,"ELAVL1-FLAG, Q15717",no binding
B4,binding,"ELAVL1-FLAG, Q15717",no binding
